{
  "sequences": {"note": "The chains behind the UniProt entries cited, without tags or fusion partners. Residues count along the entry.", "UniProt Q02161, residues 2-417": "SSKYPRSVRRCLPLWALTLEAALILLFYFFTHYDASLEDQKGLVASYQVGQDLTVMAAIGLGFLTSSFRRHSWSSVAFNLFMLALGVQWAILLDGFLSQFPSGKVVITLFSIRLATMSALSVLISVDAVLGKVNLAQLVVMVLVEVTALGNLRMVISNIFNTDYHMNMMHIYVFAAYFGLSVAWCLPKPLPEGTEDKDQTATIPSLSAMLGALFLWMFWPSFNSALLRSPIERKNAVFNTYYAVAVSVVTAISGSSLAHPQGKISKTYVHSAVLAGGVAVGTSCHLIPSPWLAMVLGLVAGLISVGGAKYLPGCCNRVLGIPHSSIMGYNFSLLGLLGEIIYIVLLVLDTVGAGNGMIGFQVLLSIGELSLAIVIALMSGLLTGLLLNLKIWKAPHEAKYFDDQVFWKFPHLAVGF"},
  "source": "patent US7038020",
  "binders": {"B1": {"name": "Fab clone LD2-1 (Fab, V domains shown)", "VH": "QVKLLESGGGVVQPGGSLRLSCVASGFTLRSYGMHWVRQAPGKGLEWVAFIWFDGSNKGYVDSVKGRFTISRDNSKNMVYLQMNSLRADDTAVYYCAREKALRGISRYNYYLDVWGKGTTVTVSS", "VL": "VVTQPPSASGTPGQRVTISCSGSNSILGSKYVYWYQKLPGTAPKLLIYKNDQRPSGVSDRFSGSKSGTSASLAISGLRSEDEADYYCAPWDANLGGPVFGGGTKLTVL"}},
  "target": "Rhesus D antigen (human) (UniProt Q02161)",
  "assay": "haemagglutination, rbc",
  "note": "These are yes or no findings as the source states them, for the method shown. Some binding calls cover weakened binding; strength is not graded here.",
  "data": [
    {"binder": "B1", "values": [
      {"measurement": "binding", "result": "binds"}
    ]}
  ]
}
